# Some entries share one result that the patent states for a list of compounds. At least one compound was matched to its structure with a doubt left.
# Test system: Dirofilaria immitis
# Assay: activity in vitro against Dirofilaria immitis microfilariae (motility)
structure (smiles),measurement,value
"N#Cc1ccc(C(F)(F)F)c(OC[C]23[C]4(CNC(=O)c5ccc(SC(F)(F)F)cc5)[Co]2(=[C]=O)(=[C]=O)(=[C]=O)[Co]43(=[C]=O)(=[C]=O)=[C]=O)c1 (stereo not shown) [Compound 7, Dicobalthexacarbonyl-N-(4-(5-cyano-2-(trifluoromethyl)phenoxy)but-2-en-1-yl)-4-((trifluoromethyl)thio)benzamide]",efficacy,up to 98%
